# Test results as given in PubChem BioAssay AID1439 (NMMLSC, 2008).
# Chains of the proteins cited; added tags and fusions are not shown.
# UniProt P09471, whole entry, looked up: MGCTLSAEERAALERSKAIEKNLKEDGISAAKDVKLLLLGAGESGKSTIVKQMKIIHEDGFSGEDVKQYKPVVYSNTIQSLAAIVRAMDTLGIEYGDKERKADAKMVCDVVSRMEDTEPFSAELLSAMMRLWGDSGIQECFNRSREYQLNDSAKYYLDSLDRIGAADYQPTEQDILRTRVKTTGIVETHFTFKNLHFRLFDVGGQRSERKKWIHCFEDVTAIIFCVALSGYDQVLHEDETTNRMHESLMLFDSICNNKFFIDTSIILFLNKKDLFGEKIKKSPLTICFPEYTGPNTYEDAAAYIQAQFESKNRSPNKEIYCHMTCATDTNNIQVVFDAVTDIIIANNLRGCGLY
# The whole screen tested about 220,000 compounds, of which about 770 (0.35%) were called active. This list was built around the results that the source calls inconclusive (neither active nor inactive); the mix of calls is not that of the screen. Rule as the data show it: active = binding response below about 49% or above about 150%; inconclusive = no clear call, values can overlap the other calls; inactive = in between.
# Molecular target: Guanine nucleotide-binding protein G(o) subunit alpha (Homo sapiens) (UniProt P09471)
# Assay: RGS7-Galphao binding modulators, primary screen, biochemical, multiplexed bead flow cytometry (AID 1439);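 also: fluorescent Galphao held in activated GDP-AlF4 state binding bead-coupled RGS7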
# Conditions: at 10 µM, actives lie on both sides
row,Compound,binding response (% of control)
1,O=C(O)COc1ccccc1/C=N/NC(=O)CSc1nnc(SCc2cccc3ccccc23)s1,inconclusive: 66.4%
2,COc1cccc(C2C3=C(N=c4s/c(=C\c5ccc(OCC(=O)O)cc5)c(=O)n42)c2ccccc2CC3)c1 (stereo unspecified),inconclusive: 157%
3,COC(=O)c1sc(-c2ccc(C(C)(C)C)cc2)cc1NC(=O)COCC(=O)O,inconclusive: 108%
4,Cc1ccccc1N/N=C/c1sc(=O)n(Cc2cccc(C(=O)O)c2)c1Cl,inconclusive: 99.5%
5,CC(C)(C)CC(C)(C)c1ccc(OCC(=O)N/N=C/c2ccc(S(=O)(=O)O)o2)cc1,inconclusive: 92.8%
6,O=C(Nc1ccc(C(=O)O)cc1)/C(=C\C=C\c1ccccc1)NC(=O)c1cccc(Br)c1,inconclusive: 122%
